PubChem BioAssay AID624291 (National Center for Advancing Translational Sciences (NCATS), 2012)
Among all 350,000 compounds or so, about 220 (0.063%) were called active. Inconclusive means that the source gave no clear call. Such entries were picked first, then a sample of the others. The call rests on the fitted dose curve; in most records, active means well fitted activation curve with a large enough effect; inconclusive means small, poorly fitted or top-dose-only effect; inactive means no such curve, though single readings can be large or run the other way. Potencies beside an inconclusive call are fits to weak or partial responses and may not hold up.

Experiment: qHTS for Activators of Integrin-Mediated Alleviation for Muscular Dystrophy; further: nearly all actives have a fitted effect of over 60% in size;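 on activation: 100% = response of the positive control SU9516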
Conditions: alpha7betagal myoblasts, beta-gal FDG fluorescence, 48 h; activation: at 38.3 µM (top of the series)
How it was run: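 Alpha7betagal+/- myoblasts (passage 13) were plated 16-24 hr, then exposed to compounds (1:260 dilution of DMSO stock) for 48 hours at 37C. After MPER lysis, β-galactosidase reporter activity was read as FDG fluorescence (ex 480/em 540) after 30 minutes.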
Potency means the concentration at half of the fitted maximal effect.

Compound	activation	Potency
CC(Sc1nnc(-c2ccco2)n1C)C(=O)N1C(C)CCCC1C (centres undefined)	inactive: -21.2%	
Cn1c(SCc2ccccc2C#N)nnc1-c1ccncc1		inconclusive: 11.2 µM [activator, single point]
CCOc1cc(N2CCOCC2)c(OCC)cc1NC(=O)CN1C(=O)C2C3C=CC(C3)C2C1=O (centres undefined)		inconclusive: 22.4 µM [activator, single point]
CN(CC(=O)Nc1cc(C(F)(F)F)ccc1-n1cncn1)Cc1nc2ccccc2c(=O)[nH]1		inconclusive: 17.8 µM [activator, single point]
O=C(CSc1nnc(NC(=O)c2cccc(F)c2)s1)NCc1ccco1	inactive: -18.7%	
NNC(=O)CSc1nc(-c2ccccc2)nc2c1CCCC2		inconclusive: 3.16 µM [activator, single point]
CC(NC(=O)COC(=O)C1CCN(c2ccc(C(F)(F)F)cn2)CC1)c1ccc(Br)cc1 (centres undefined)		inconclusive: 31.6 µM [activator, partial curve, poor fit]
CCOC(=O)C1=C(C)N=c2s/c(=C\c3ccc(OCC(=O)O)cc3)c(=O)n2C1c1ccccc1OC (centres undefined)		inconclusive: 28.2 µM [activator, single point]
CCOc1ccc(NC(=O)CC2SC(=O)N(c3ccccc3)C2=O)cc1 (centres undefined)		inconclusive: 28.2 µM [activator, single point]
COc1ccc(/C(C)=N/NC(=O)CNC(=O)Cc2ccccc2)c(OC)c1		inconclusive: 0.501 µM [activator, full curve, poor fit]
CSc1ccccc1C(=O)Nc1nc2ccccc2c(=O)[nH]1		inconclusive: 3.55 µM [activator, single point]
COc1ccc(C(=O)NC(=O)Nc2cc(C)ccn2)cc1	inactive: -2.67%	
C=CCN1C(=O)[C@H]2CCC=C[C@H]2[C@@H]1c1cccc(C)c1	inactive: 12.5%	
Cc1c(C(=O)N2CCN(Cc3ccc4c(c3)OCO4)CC2)sc2ncnc(N3CCN(c4ccccc4F)CC3)c12		inconclusive: 1.58 µM [activator, partial curve, poor fit]
CCC(C(=O)OCC(=O)Nc1ccc(OC)cc1OC)c1ccccc1 (centres undefined)	inactive: 9.72%	
COc1ccc(S(=O)(=O)N2CCCCC2)cc1NC(=O)c1cc(C)on1		inconclusive: 0.447 µM [activator, full curve, poor fit]
Cc1ccc(NC(=O)C2CCCN(S(=O)(=O)c3c(C)noc3C)C2)nc1 (centres undefined)		inconclusive: 28.2 µM [activator, single point]
c1ccc(-c2cc(-c3nnco3)c3ccccc3n2)nc1		inconclusive: 5.01 µM [activator, single point]
Cc1cccc2cc(C#N)c(N3CCN(C)CC3)nc12	inactive: 20.6%	
COc1ccc(NC(=S)N(CCC(C)C)C(C)c2ccncc2)cc1 (centres undefined)	inactive: 10.1%	
CN(C)CCN(C(=O)c1ccc2c(c1)CCCC2)c1nc2cc3c(cc2s1)OCCO3	inactive: -21%	
CCN(CC(=O)Nc1cccc(S(N)(=O)=O)c1)Cc1nc2ccccc2c(=O)[nH]1		inconclusive: 3.16 µM [activator, single point]

Compound	activation	Potency
S=C(NCCc1ccccc1)N/N=C/c1cccs1	inactive: 6.57%	
COc1ccc(N2CCN(c3oc(COc4ccccc4Cl)nc3C#N)CC2)cc1		inconclusive: 2.82 µM [activator, single point]
CC(=O)N1CCN(S(=O)(=O)c2cccc(C(=O)N3CCN(S(=O)(=O)c4c(C)c(C)cc(C)c4C)CC3)c2)CC1	inactive: -12.5%	
CCC(CC)C(=O)Nc1nnc(S(=O)(=O)Nc2ccc(OC)cc2)s1		inconclusive: 10 µM [activator, partial curve, poor fit]
CC1OC(CC(=O)O)CC2=C1C(=O)c1c(O)cccc1C2=O (centres undefined)	inconclusive: -53.5% [activator]	
CCC(=O)N(c1nnc(SCC(=O)NN2C(=O)NC3(CCCCC3)C2=O)s1)C1CC1		inconclusive: 2.82 µM [activator, single point]
CC1CCCN(C(=O)CN(c2ccccc2)S(=O)(=O)c2ccc(F)cc2)C1 (centres undefined)		inconclusive: 12.6 µM [activator, single point]
O=c1[nH]c(C2CCN(S(=O)(=O)c3ccc(S(=O)(=O)NC4CC4)cc3)CC2)nc2c1nnn2Cc1cccc(F)c1		inconclusive: 28.2 µM [activator, single point]
CCNC(=O)COC(=O)c1cc(-c2ccco2)nc2ccccc12		active: 5.62 µM
OCCNc1ncnc2ccc(Br)cc12		inconclusive: 28.2 µM [activator, single point]
CCOc1ccc(S(=O)(=O)N2CCN(CCNS(=O)(=O)c3ccc(C)cc3)CC2)cc1		inconclusive: 28.2 µM [activator, single point]
Cc1cccc(NC(=O)c2ccccc2NC(=O)c2ccco2)c1		inconclusive: 28.2 µM [activator, single point]
CC(/C=N/NC(=O)c1cccs1)=C\c1ccco1		inconclusive: 8.91 µM [activator, single point]
COc1ccc(NC(=S)NC(=O)Cc2ccccc2)c(OC)c1	inactive: 0%	
Cc1c(CC(=O)N[C@@H](C)C(=O)O)c(=O)oc2cc3c(cc12)CCC(C)(C)O3	inactive: 4.89%	
O=C1CSC(=S)N1c1ccc(Cl)c(Cl)c1		inconclusive: 5.01 µM [activator, single point]
O=C1CNC(=S)N1c1nc2ccccc2s1	inactive: -4.74%	
Cc1ccc(/C=N/NC(=O)c2ccc(-c3ccccc3)cc2)o1		inconclusive: 28.2 µM [activator, single point]
O=C(CSc1nc(O)c(C2CCCCC2)c(=O)[nH]1)Nc1ccccc1Cl		inconclusive: 7.94 µM [activator, partial curve]
Cc1sc2ncn(CC(=O)Nc3cccc(S(N)(=O)=O)c3)c(=O)c2c1-c1ccccc1	inactive: 11.6%	
CC1=C(C(=O)OC2CCCC2)C(c2coc3ccccc3c2=O)C2=C(CCCC2=O)N1 (centres undefined)		inconclusive: 11.2 µM [activator, partial curve, poor fit]
O=C(/C=C/c1ccc(OC(F)F)cc1)Nc1cccc(S(=O)(=O)N2CCOCC2)c1		inconclusive: 3.16 µM [activator, single point]

Complete entries from above.
O=C(CSc1nc(O)c(C2CCCCC2)c(=O)[nH]1)Nc1ccccc1Cl in the list: Potency: inconclusive: 7.94 µM [activator, partial curve]
CCC(CC)C(=O)Nc1nnc(S(=O)(=O)Nc2ccc(OC)cc2)s1 in the list: Potency: inconclusive: 10 µM [activator, partial curve, poor fit]
